In PMC8981563 (RSC Advances, 2022):

Tests used:
[1] = rats; cited from earlier work
in vivo = details: male, C57BL/6, mouse, po, 10 mg/kg

**Q.** Which results are given for `Cc1ccc(-c2ccc(F)cc2COc2ccc(CCC(=O)O)cc2)cc1` [TUG-891]?
**A.** plasma clearance [1]: high plasma clearance; AUC (in vivo): 1500 ± 87 ng·h/mL; AUC(0-t) (in vivo): 1500 ng·h/mL; half-life (in vivo): 37.2 ± 8.4 min
